Data: the supplement of paper PMC8728848
Some of the results follow.

Key:
Assay in all cases: glycan array binding signal (z-score within array); higher = stronger binding
Conditions in all cases: glycan notation: IUPAC condensed, linker removed
[1] = target: GlcNAc(b1-4)GlcNAc(b1-4)GlcNAc(b1-4)GlcNAc(b1-4)GlcNAc(b1-4)GlcNAc
How it was run: (§1)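 Glycan array binding is given as a within-array Z-score, which can be read as non-binding when negative. The arrays, 3228 of them, came from the Consortium for Functional Glycomics database and were retained only where the protein sequence was available. Z-scores were averaged across arrays of the same protein sequence at different concentrations or buffers and across linkers.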

[2] = target: GlcNAc(b1-4)[GlcNAc(b1-6)]GalNAc
How it was run: as §1

[3] = target: GlcNAc(b1-6)Gal(b1-4)GlcNAc
How it was run: as §1

GlcNAc(b1-6)GalNAc = target: GlcNAc(b1-6)GalNAc
How it was run: as §1

[4] = target: GlcNAc6S(b1-3)Gal(b1-4)GlcNAc
How it was run: as §1

Kdn(a2-3)Gal(b1-3)GalNAc = target: Kdn(a2-3)Gal(b1-3)GalNAc
How it was run: as §1

Kdn(a2-3)Gal(b1-3)GlcNAc = target: Kdn(a2-3)Gal(b1-3)GlcNAc
How it was run: as §1

Kdn(a2-3)Gal(b1-4)Glc = target: Kdn(a2-3)Gal(b1-4)Glc
How it was run: as §1

Kdn(a2-3)Gal(b1-4)GlcNAc = target: Kdn(a2-3)Gal(b1-4)GlcNAc
How it was run: as §1

[5] = target: Kdn(a2-3)Gal(b1-4)[Fuc(a1-3)]GlcNAc
How it was run: as §1

Kdn(a2-6)Gal(b1-4)GlcNAc = target: Kdn(a2-6)Gal(b1-4)GlcNAc
How it was run: as §1

[6] = target: Man(a1-2)Man(a1-2)Man(a1-3)Man
How it was run: as §1

[7] = target: Man(a1-2)Man(a1-2)Man(a1-6)[Man(a1-3)]Man
How it was run: as §1

Man(a1-2)Man(a1-3)Man = target: Man(a1-2)Man(a1-3)Man
How it was run: as §1

[8] = target: Man(a1-2)Man(a1-3)[Man(a1-2)Man(a1-6)]Man
How it was run: as §1

[9] = target: Man(a1-2)Man(a1-3)[Man(a1-2)Man(a1-6)]Man(a1-6)[Man(a1-2)Man(a1-2)Man(a1-3)]Man
How it was run: as §1

[10] = target: Man(a1-2)Man(a1-3)[Man(a1-2)Man(a1-6)]Man(a1-6)[Man(a1-2)Man(a1-2)Man(a1-3)]Man(b1-4)GlcNAc(b1-4)GlcNAc
How it was run: as §1

[11] = target: Man(a1-2)Man(a1-3)[Man(a1-6)]Man(a1-6)[Man(a1-2)Man(a1-3)]Man(b1-4)GlcNAc(b1-4)GlcNAc
How it was run: as §1

[12] = target: Man(a1-2)Man(a1-6)[Man(a1-3)]Man(a1-6)[Man(a1-2)Man(a1-2)Man(a1-3)]Man
How it was run: as §1

[13] = target: Man(a1-2)Man(a1-6)[Man(a1-3)]Man(a1-6)[Man(a1-2)Man(a1-2)Man(a1-3)]Man(b1-4)GlcNAc(b1-4)GlcNAc
How it was run: as §1

Man(a1-3)[Man(a1-6)]Man = target: Man(a1-3)[Man(a1-6)]Man
How it was run: as §1

[14] = target: Man(a1-3)[Man(a1-6)]Man(a1-6)[Man(a1-2)Man(a1-3)]Man(b1-4)GlcNAc(b1-4)GlcNAc
How it was run: as §1

[15] = target: Man(a1-3)[Man(a1-6)]Man(a1-6)[Man(a1-3)]Man
How it was run: as §1

[16] = target: Man(a1-3)[Man(a1-6)]Man(a1-6)[Man(a1-3)]Man(b1-4)GlcNAc(b1-4)GlcNAc
How it was run: as §1

[17] = target: Man(a1-3)[Man(a1-6)]Man(b1-4)GlcNAc(b1-4)GlcNAc
How it was run: as §1

[18] = target: Man(a1-3)[Man(a1-6)]Man(b1-4)GlcNAc(b1-4)[Fuc(a1-6)]GlcNAc
How it was run: as §1

Man(a1-6)Man = target: Man(a1-6)Man
How it was run: as §1

Man(b1-4)GlcNAc = target: Man(b1-4)GlcNAc
How it was run: as §1

MurNAc(b1-4)GlcNAc = target: MurNAc(b1-4)GlcNAc
How it was run: as §1

Neu5Ac(a2-3)Gal = target: Neu5Ac(a2-3)Gal
How it was run: as §1

[19] = target: Neu5Ac(a2-3)Gal(b1-3)GalNAc
How it was run: as §1

[20] = target: Neu5Ac(a2-3)Gal(b1-3)GalNAc(b1-3)Gal(a1-4)Gal(b1-4)Glc
How it was run: as §1

[21] = target: Neu5Ac(a2-3)Gal(b1-3)GalNAc(b1-4)[Neu5Ac(a2-3)]Gal(b1-4)Glc
How it was run: as §1

[22] = target: Neu5Ac(a2-3)Gal(b1-3)GalNAc(b1-4)[Neu5Ac(a2-8)Neu5Ac(a2-3)]Gal(b1-4)Glc
How it was run: as §1

[23] = target: Neu5Ac(a2-3)Gal(b1-3)GalNAc6S
How it was run: as §1

[24] = target: Neu5Ac(a2-3)Gal(b1-3)GlcNAc
How it was run: as §1

[25] = target: Neu5Ac(a2-3)Gal(b1-3)GlcNAc(b1-2)Man
How it was run: as §1

[26] = target: Neu5Ac(a2-3)Gal(b1-3)GlcNAc(b1-2)Man(a1-3)[GlcNAc(b1-4)][Neu5Ac(a2-3)Gal(b1-3)GlcNAc(b1-2)Man(a1-6)]Man(b1-4)GlcNAc(b1-4)GlcNAc
How it was run: as §1

[27] = target: Neu5Ac(a2-3)Gal(b1-3)GlcNAc(b1-2)Man(a1-3)[Neu5Ac(a2-3)Gal(b1-3)GlcNAc(b1-2)Man(a1-6)]Man(b1-4)GlcNAc(b1-4)GlcNAc
How it was run: as §1

[28] = target: Neu5Ac(a2-3)Gal(b1-3)GlcNAc(b1-3)Gal(b1-3)GlcNAc
How it was run: as §1

[29] = target: Neu5Ac(a2-3)Gal(b1-3)GlcNAc(b1-3)Gal(b1-4)GlcNAc
How it was run: as §1

[30] = target: Neu5Ac(a2-3)Gal(b1-3)GlcNAc(b1-3)GalNAc
How it was run: as §1

[31] = target: Neu5Ac(a2-3)Gal(b1-3)GlcNAc(b1-4)Gal(b1-4)Glc
How it was run: as §1

[32] = target: Neu5Ac(a2-3)Gal(b1-3)GlcNAc(b1-6)GalNAc
How it was run: as §1

[33] = target: Neu5Ac(a2-3)Gal(b1-3)GlcNAc6S
How it was run: as §1

B1: Clec18A (Homo sapiens) (protein)
chain: PFHTCDLRIDGDCFMVSSEADTYYRARMKCQRKGGVLAQIKRQKVQDILAFYLGRLETTNEVIDSDFETRNFWIGLTYKTAKDSFRWATGEHQAFTSFAFGQPDNHGFGNCVELQASAAFNWNDQRCKTRNRYICQ
glycan array binding signal (z-score) [1]: -0.758 | glycan array binding signal (z-score) [2]: -0.376 | glycan array binding signal (z-score) [3]: -0.666 | glycan array binding signal (z-score) (GlcNAc(b1-6)GalNAc): 0.314 | glycan array binding signal (z-score) [4]: -0.779 | glycan array binding signal (z-score) (Kdn(a2-3)Gal(b1-3)GalNAc): -0.348 | glycan array binding signal (z-score) (Kdn(a2-3)Gal(b1-3)GlcNAc): 0.75 | glycan array binding signal (z-score) (Kdn(a2-3)Gal(b1-4)Glc): -0.167 | glycan array binding signal (z-score) (Kdn(a2-3)Gal(b1-4)GlcNAc): -0.545 | glycan array binding signal (z-score) [5]: -0.231 | glycan array binding signal (z-score) (Kdn(a2-6)Gal(b1-4)GlcNAc): -0.602 | glycan array binding signal (z-score) [6]: -0.869 | glycan array binding signal (z-score) [7]: -0.61 | glycan array binding signal (z-score) (Man(a1-2)Man(a1-3)Man): -0.803 | glycan array binding signal (z-score) [8]: -0.999 | glycan array binding signal (z-score) [9]: -0.771 | glycan array binding signal (z-score) [10]: -0.084 | glycan array binding signal (z-score) [11]: -0.77 | glycan array binding signal (z-score) [12]: -0.89 | glycan array binding signal (z-score) [13]: -0.291 | glycan array binding signal (z-score) (Man(a1-3)[Man(a1-6)]Man): -0.992 | glycan array binding signal (z-score) [14]: -0.754 | glycan array binding signal (z-score) [15]: 1.23 | glycan array binding signal (z-score) [16]: -0.219 | glycan array binding signal (z-score) [17]: -0.389 | glycan array binding signal (z-score) [18]: -0.194 | glycan array binding signal (z-score) (Man(a1-6)Man): -0.685 | glycan array binding signal (z-score) (Man(b1-4)GlcNAc): -0.767 | glycan array binding signal (z-score) (MurNAc(b1-4)GlcNAc): -0.466 | glycan array binding signal (z-score) (Neu5Ac(a2-3)Gal): -0.755 | glycan array binding signal (z-score) [19]: -0.675 | glycan array binding signal (z-score) [20]: 2.87 | glycan array binding signal (z-score) [21]: -0.742 | glycan array binding signal (z-score) [22]: -0.047 | glycan array binding signal (z-score) [23]: -0.925 | glycan array binding signal (z-score) [24]: -0.801 | glycan array binding signal (z-score) [25]: 1.04 | glycan array binding signal (z-score) [26]: -0.098 | glycan array binding signal (z-score) [27]: -0.827 | glycan array binding signal (z-score) [28]: -0.819 | glycan array binding signal (z-score) [29]: 0.065 | glycan array binding signal (z-score) [30]: -0.304 | glycan array binding signal (z-score) [31]: -0.859 | glycan array binding signal (z-score) [32]: -0.322 | glycan array binding signal (z-score) [33]: -0.553
